Measured values: PubChem BioAssay AID624297 (National Center for Advancing Translational Sciences (NCATS), 2012)
In all, about 340,000 compounds went through this assay and about 6,200 (1.8%) were called active. The inconclusive results got no clear call from the source; some entries with a clear call stand among them for comparison. Calls follow the shape of the dose curve; as a rule, active = well fitted activation curve with a large enough effect; inconclusive = small, poorly fitted or top-dose-only effect; inactive = no such curve, though single readings can be large or run the other way. A potency beside an inconclusive call is a rough fit, not a confirmed value.

assay: A quantitative high throughput screen for small molecules that induce DNA re-replication in SW480 colon adenocarcinoma cells.; also: nearly all actives have a fitted effect of over 55% in size; details: Hoechst DNA content imaging, 48 h; series mostly up to 46.1 µM
Summary of the method: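 250 cells/well; 23 nL cpd via pin tool; 48 hr, 37 C, 5% CO2; Hoechst 40 min; imager read of total nuclear intensity, ex 405/em 500-530 nm.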
Potency is read from the fitted curve at half-maximal effect.

Structure (SMILES)	Potency
C=C1C(=O)O[C@@]23[C@H]1CC[C@@H](C)[C@@H]2CC[C@@]1(C)O[C@@H]31	inconclusive: 4.11 µM [activator, full curve, poor fit]
Cc1cc(C)n(CCc2nc(-c3ccc(F)cc3)cs2)n1	inconclusive: 4.11 µM [activator, partial curve, poor fit]
COCCN(C(=O)COC(=O)c1ccc2[nH]c(C)c(C)c2c1)c1c(N)n(Cc2ccccc2)c(=O)[nH]c1=O	inconclusive: 32.6 µM [activator, partial curve, poor fit]
COc1ccc(N2CC(C(=O)N[C@@H](C)C(=O)NC(C)c3ccccc3)CC2=O)cc1 (stereo not given in full)	inconclusive: 29.1 µM [activator, single point]
O=C(CSCc1ccccc1)NNc1c(F)c(F)cc(F)c1F	inactive
CC1(C)OC(=O)N(c2ccccc2)C12C=Cc1cc(Br)ccc1O2 (stereo not given)	inconclusive: 25.9 µM [activator, single point]
Cc1ccsc1C(=O)NNC(=O)c1csc(N2CCOCC2)n1	inactive
COCCNC(=O)c1cccc(Nc2nc(-c3ccccc3)c3cc(Cl)ccc3n2)c1	inconclusive: 25.9 µM [activator, single point]
Cc1ccccc1OCC(=O)OCC(=O)Nc1cc(C(F)(F)F)ccc1N1CCOCC1	inconclusive: 20.6 µM [activator, single point]
CC(C)=CCc1c(O)cc(O)c2c(=O)c3c(CC=C(C)C)c(O)ccc3oc12	inconclusive: 29.1 µM [activator, single point]
N=c1c(S(=O)(=O)c2ccc(Cl)cc2)cc2c(=O)n3ccccc3nc2n1CCN1CCOCC1	inactive
COc1ccc(C(=O)NC(=S)NNC(=O)c2ccc(O)cc2)cc1[N+](=O)[O-]	inactive
CCCc1c(C(=O)N/N=C/c2ccccc2OCc2ccc(F)cc2)nnn1-c1nonc1N	inconclusive: 16.4 µM [activator, single point]
COc1ccccc1-c1nnc(SCC(=O)Nc2oc(C)c3c(C)n[nH]c(=O)c23)n1C	inactive
COc1ccccc1N(CC(=O)NCCSc1ccccc1)S(C)(=O)=O	inactive
O=C(Nc1ccccc1Cl)C1C2CCC3C(CCC21)C3(Cl)Cl (stereo not given)	inconclusive: 2.06 µM [activator, full curve, poor fit]
Cc1ccc(SCC(=O)N(C)CC(=O)Nc2cccc(F)c2)c(C)c1	inconclusive: 6.51 µM [activator, single point]
C[C@]12CCC(=O)C=C1[C@@H]1C[C@H]1[C@H]1[C@@H]3[C@@H]4C[C@H]4[C@@]4(CCC(=O)O4)[C@@]3(C)CC[C@@H]12	inactive
Cc1cccc(-c2nc(CN3CCCC(C(=O)NC4CCCCCC4)C3)c(C)o2)c1 (stereo not given)	inconclusive: 18.4 µM [activator, single point]
O=C(C[n+]1ccccc1)N1c2ccccc2Sc2ccccc21	inactive
O=C(NCC1CCCO1)c1cc2ccccc2nc1Cl (stereo not given)	inactive
CCOC(=O)c1c(CSc2ccccc2)n(C)c2cc(Br)c(OCC(O)CNC(CO)(CO)CO)cc12 (stereo not given)	inconclusive: 18.4 µM [activator, single point]
CC(Cc1cccs1)NC(=S)Nc1ccc(Cl)cc1 (stereo not given)	inactive

Structure (SMILES)	Potency
Cc1nc(SCCc2ccccc2)[nH]c(=O)c1C	inconclusive: 29.1 µM [activator, single point]
CC(=O)N1c2ccc(S(=O)(=O)N3CCC(C(=O)Nc4ccccn4)CC3)cc2CC1C (stereo not given)	inconclusive: 6.51 µM [activator, partial curve, poor fit]
CCOc1cc(-c2c(C#N)c(N)nc3c2CCc2ccccc2-3)ccc1O	inconclusive: 20.6 µM [activator, single point]
OC/C=C/c1ccccc1	inactive
Nc1nc(Oc2ccc(F)cc2)c(Br)c(=O)[nH]1	inconclusive: 18.4 µM [activator, single point]
Cc1cccc(NC(=O)c2cccc(Cn3cc(Br)c([N+](=O)[O-])n3)c2)c1C	inactive
CN1CCN(c2nc(-c3ccc(C(C)(C)C)cc3)nc3ccccc23)CC1	inconclusive: 14.6 µM [activator, partial curve, poor fit]
COc1ccc(-c2nn(-c3ccccc3)cc2/C=N/NC(=O)c2ccc(Br)o2)cc1	inconclusive: 18.4 µM [activator, single point]
Cc1c(O)ccc2c(=O)c(-c3nncn3-c3ccccc3)coc12	inconclusive: 0.092 µM [activator, partial curve, poor fit]
Cc1nc(NC(=S)NC(=O)c2cncc(Br)c2)ccc1Br	inactive
CN1CCN(C(=S)SCC(=O)Nc2nc(-c3ccccc3)c(-c3ccccc3)o2)CC1	inactive
COc1ccccc1-c1cccc([C@@H]2C[C@H]3[C@H](CON3C)CN2C(=O)CCc2ccccc2)c1	inconclusive: 4.11 µM [activator, full curve, poor fit]
Nc1ccc(Nc2ccc([N+](=O)[O-])cc2[N+](=O)[O-])cc1	inconclusive: 29.1 µM [activator, single point]
CC1(C)Cc2c(sc3[nH]c(=S)n(Cc4ccccc4)c(=O)c23)CO1	inactive
c1ccc(OCCOc2ccccc2-c2nnco2)cc1	inactive
COCCn1c(=N)c(S(=O)(=O)c2ccc(F)cc2)cc2c(=O)n3cccc(C)c3nc21	inconclusive: 13 µM [activator, partial curve, poor fit]
CCOCC(=O)Nc1ccccc1C(=O)O	inconclusive: 8.2 µM [activator, single point]
CC(=O)C1=C(O)C(=O)N(c2nccs2)C1c1ccccc1 (stereo not given)	inactive
Cc1nc2scc(C)n2c(=O)c1S(=O)(=O)N1CCN(c2ccc([N+](=O)[O-])cc2)CC1	inactive
Cc1ccc(S(=O)(=O)N2CCN(S(C)(=O)=O)CC2)cc1	inconclusive: 35.5 µM [activator, partial curve, poor fit]
CC1CC(C)CN(C(=O)c2ccncc2)C1 (stereo not given)	inactive
CCOC(=O)c1c(C)oc2c1c(CN1CCN(CCO)CC1)c(O)c1ccccc12	inconclusive: 16.4 µM [activator, single point]

Single entries from above.
`Cc1nc(NC(=S)NC(=O)c2cncc(Br)c2)ccc1Br` – Potency: inactive
`Cc1ccc(S(=O)(=O)N2CCN(S(C)(=O)=O)CC2)cc1` – Potency: inconclusive: 35.5 µM [activator, partial curve, poor fit]
